Experimental data as given in article PMC11651612.
These are yes or no findings as the source states them, for the method shown. Binding seen in cells or lysates may run through a third protein. Here binding means that the protein was enriched with, or labelled near, the bait; the list need not be complete. One block for each binder: values may come before it.

Molecular target: T1, Cdc3-mCherry (C. neoformans) (UniProt J9VUF2)
T1 sequence: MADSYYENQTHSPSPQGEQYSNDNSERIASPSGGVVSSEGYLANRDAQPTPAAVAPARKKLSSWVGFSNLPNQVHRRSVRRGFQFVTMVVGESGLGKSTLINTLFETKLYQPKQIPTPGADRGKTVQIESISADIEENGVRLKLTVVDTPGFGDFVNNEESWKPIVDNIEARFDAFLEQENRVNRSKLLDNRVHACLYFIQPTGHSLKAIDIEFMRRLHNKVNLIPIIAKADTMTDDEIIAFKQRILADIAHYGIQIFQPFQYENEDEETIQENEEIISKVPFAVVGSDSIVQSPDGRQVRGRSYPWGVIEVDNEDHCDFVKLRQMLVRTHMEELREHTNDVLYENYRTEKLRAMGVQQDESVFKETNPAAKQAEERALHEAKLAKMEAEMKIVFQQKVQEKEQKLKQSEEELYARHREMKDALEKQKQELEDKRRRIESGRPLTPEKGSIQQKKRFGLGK
Experiment: affinity purification with mass spectrometry; mCherry-tagged septin captured from C. neoformans lysate on RFP-Trap agarose, 4 h at 4°C, washed with TBS with 2 M urea pH 7.5; GeLC-MS/MS; untagged H99 as negative control; hits logFC >2 and adjusted p <0.001 (text-named hits <0.05); exponential cultures at ~25°C or shifted to 37°C for 2 h; N = 5

binding: binds
B1: Septin ring protein CDC10 (protein, UniProt J9VMT9 1-322)
chain: MASLVSPAPEEIAAASYVGFDSITRQIEHKLLKRGFQFNVMVVGQTGLGKSTLINTLFASHLIESKGRFEPDVLPRQTTEIAAQSHVIVENGVRLKLNIIDTPGYGDNVNNEGCWDPIIKYIKDQHSAYLRKELTAMRDRFIPDTRIHCCLFFINPTGHTLKPIDIVVLKKLTEVVNVVPVIAKSDSLTLEERSLFKQRILAEMHHNQIRMFPFDSDELDEEELRANERVREMLPFAIVGSERSVIIDGKPVRGRKNRWGVINVEDERHCEFVYLRNFLTRTHLQDLIETTAQVHYETFRSKQLLALKESSAKAQQASASTA

binding: binds
B3: Thioesterase superfamily protein (protein, UniProt J9VJ33 1-291)
chain: MALRCRFSCVRDYRAATSNRAFKRSIMSHIQTVHSKPTLAVTDDDAARLQEIYAKFQDPSSHYYIAPGSFGPEHEEDHRASHVPDPAYSLDAVANAKASSPFQGSQGQRGRVDDRPWLNEDSGRKEQALEYFKQQNHDTIGVLTWPVAWGDQDSFQHVNNVQILRWVESARIRYCESWAGKLGEKTVYDMLLAKGTGIILKEVSIKYKAPITYPDTLMISNCIHSVNVERASYGHQHIIWSLKDQQVKAVSDSTIVIYDYDNLKKGVMSDQLRELLLNVAGDNKSSGEHTK

binding: binds
B4: PHD-type domain-containing protein (protein, UniProt J9VUG6 1-560)
chain: MANESVEGSTWGRVLICGGTDWATNGRKERSSGKAPTDLMEPHILRSLCNVKASKIITGPSANYAIVLDIHGATYLFGRPPAMVQSNGVISESTPLKISPSSVGSPKGTKWVNGAAGRSHFLLVDSKGDVWGCGNNVFGQIGVPVATVVDKLTKVTGPWVKDPEAKVVQVTAGHTFSLFLTSTGQVYASGSSEFGQLGNGKTGERLVKAGKIAYDIEVPPRLVQGFENVKIIEIASGNQHSLALDDNGYVYSWGFAGYSRLGLQDQKDRLLPTIVPSFAGNNELTRARSIACGPTSSTVIDRQNMILIAGKWKLSGDGSTGQPYTRFKHIQDVMACKVIKTSSGGCTHFIITPDPEGGVMTVGFGQGVLYGELGLGSDSAKSATKPQKIIPLSGVDMIDVVGGAFFTLFLARPNLALSDLDRYPLHINSASLCLICNTDLEQDAPLECERCDQPYHIGCLSPPLSAVPEGEWFCPECALEADAGPDEPFKPALGITIPKPANGKKGVKQDVVETAGNPKALASATNGASTPSKFVKGGKRSREEERSAQESGKKARNSMG

binding: binds
B7: Omega-6 fatty acid desaturase (Delta-12 desaturase) (protein, UniProt J9VTF7 1-448)
chain: MTSTLRQRAVTPPAGQVEKDQLLREAEEKEISQGQQFIVPNFTIKQLLDAIPAHCYKRSALRSSLYVVQDAVIIAALVYGAFHIDSFLGRFSLSPVAYYAAKFALWSAYWFITGLFGTGIWVIAHEAGHQAYSSSKAINNAVGWVLHSALLVPYHSWRISHGRHHAATGHLTRDEVFVPRTRKQLGYPEVEEEGEILGINVSKERQNQLREALEDSPIVVCYNLFLQQLFGWPMYLIRNASGQLHYPEKTNHFSPHSFIFKANQYWQIVWSDIGIVLVFAALTFWASQRGIKEVATIYGIPYLWVNHWLVFITFLQHTDPILPHYSANKWTFPRGALATIDRDFLGPVGAYVFHGITETHVAHHISSKIPHYNAWEATEALKKFLGPAYHKSDENMFVSCYKCYRDCLFVEDGQDIVFYKNASGLAQRVPVEENGNISDSGIDMAEPK

binding: binds
B9: ULP_PROTEASE domain-containing protein (protein, UniProt J9VVE7 1-908)
chain: MSVAATKSEISHNPGKMSVTSAVSGEKVEGDVQSRMKLFGAIQAFRDGRMPDNEQIGSVLEYAIGHSPVDLQKLSPEGRVLIEDFRDTLETLRMIVHEKNSDELFQNAVWSSYHGDVSKAKQDGVIPVSNEQAKQDGKTAASHIRVLITLFLTNSEARKLLKDFGIVGRDIFATAATKAADKSRPSQEKLDSVDQEAPSHEWIGADGKRLGPNETPDIQIKGPGGTQARYHPRDDPRDAQLVDDKGKTRSAGEAYNQAQEAKSDAQSKAQDLKSSARDYKETGKQQARSHAQDVAGNRDPNASLSEQKEQVKGAAYDKRDAANAQADQNLPDPNDEGNQEKARGKAAALRDRIPEEHRQKAADYIQKSKNFVNDELPEERRDQFIYRLKKVVVECQGHKDYQEAMTWLLDTLENYRGHAKHVANKGTESAQTVANDPAVGDSTIQFRTLLERFANGKSLDNVFSALDQIYTDVQNDSELREWFTTFNDYMHRVLLEPGYILDEDSDREARQLRESGRRFFQDKYKAHQELLFDELQVWLTAFGEDPLNVRLGDDIKRFCKDLLFNHEGNLTFKPKLWNDVRQVLLPMLLKQVSYVPIPRAEYSDNSIDLVIEDLILSGPNLFPNLVHIESFNSFSFSPYPKLNKTMDNQHHKFRLSLSQIQADIRDVAFAFRRKSGWPKLSDHGLADVVLAGKGISVDVELESIENRRDTVFKTNFIHVNIDTLKFSIRNSKHDLLYKFIKSTATGLIKRAITAAVQNAMHTALGHLDEQLVEVRNRVDEAKQSDETTRTQALKDLYSRKKESAQEKKAAADEKTGTFKIITDRDSQLNPELTHDGGKSWAKRAFKVEDAARTGKEWRSPAFNLIDPAHPAVTGQHHPAVQNADVESEKLKQRAEAAAPGVAAGTKRM

Second part, the binder before the results:

B2: Large subunit ribosomal protein L14 (protein, UniProt J9VMD7 1-149)
chain: MIGLKGILNVIDNTGALKVECINVLKVKTRLKSTGFATVGDEIVCVVNKARPIPANEVIKNPNASSNIQKIRKGDVRRAVVVRVKKTTQRPDGSVVRFDDSAAVLLNNKGEMLGTRIVGPVASELRKIKGGAGSGGRWEKIVMLAPKVV
binding: binds

B5: U3 small nucleolar RNA-associated protein 12 (protein, UniProt J9VLP6 1-988)
chain: MVKSYMRHGPTQAFGIISSPTANSSYNGRLAYVPGWEDVLVWDTKRGEMVAMWHSTGLTSSVTYLTPAPTPYTSTSTTPVTFAVSYQDGSIRLWSYDPSTPEIEASETVTFNGHKKSVTIMTWDHDASRLASGGTEGEIVIWDRIGEVGLFRLKGHRAPITGLAFIPHPRGGHPGWLISTSRDTYLKVWDLGTQHCVQTVVVGRGEVTSLAVREEAEESITGQGEGEAEDQEEIKGRWVVVTGTGDGEAKVYTVEKSQLARGMAEDENGELPALITSVCTLPLPSSTHPISQMAWHPALPLLSLQTSDRGVAILRLRTEEEVSAKRARRKKRDREKKKKGKGDKQKEEDKEEDETDEPVKWEERVAVWCMVRANAKVKSFAFANENVVSVKGGVSLLLALSNNSIESYTIPTPGSKSKLAGGTTPEPTKTHSIELPGHRQDIRTISISSDDQVIASASSGTLKLWNARTTACIRTMECGYALCSTFLPGDRHVMIGTKAGELMLYDVAASSLLKTYKAHTGPVWSVSVRPDGRGLVSGSADKDVKFWDFEMRQEGEGERVVSRLGVETVYKTKQLALVHVRTLKMTDDILSLKYSPNGRFLAIALLDSTVKIFFSDTLKFFLSLYGHKLPVLSLDISSDSKLLVTCSADKNVKIWGLDFGDCHKSIFAHDEAVMGVMFEKEAGSHNFWTVGKDRMVKYWDGDKFELIQKLSGHHGEIWALSTSQSGQFVVTGSHDKSIRIWEKTDEPLFLEEEREKEIEAMYDSNLADTLNREPGEGEGEGDETEAVQKQTAETLVAGEKIMEAIELADADRAATHQWEEDNAKSKVEIPRPPRNAELIARGDLEPDEYVLKVVQKIPAAQMEDALLVLPFRMVVSLMGYLDEWAMQGKEIILVSRILFFLLRTHSSQIVSNRIMRTPLLTLRHHLRDALAQQRDVMGYNLAALKFLKGRWEGERVAGLYEQEGLDEEAVRKRLEEGRGKRKRIEVRA
binding: binds

B6: Midasin (protein, UniProt J9VK61 1-972)
chain: MSSLGQKKQAPTPSKTPKKPTQNPEKGASGALGSVKDTAGGATKTAGDTVSGATKQAPGPAKDVGKKVGDTAKDVGGKTSQAAQNPTTPKKAPQPKQAADSPTKKASEGTDKLQKQGEDVAKTAQKQDVKPASAGKGPEKEAAPQTPQEEAAPQTPQEGAAPQTPQEEAAPQTPQQESDDEDKGENQDDNKGEEEEGNDEPVEDEPEGQDQNEGAPEGESGDEDAAKPETLDEPAGDAGGEEQGAPVSDDKEGGVDQAVDKANENKPDDKEGGVDQAVDEANENKPDDKEGGVDQAVDKANENKPEFTGPLTVDQTGKIKDADDRTIASVSEEDAKKLEGSEIADIDASGNLMNKEGDVIGNAELGQGLAQAEEQIDYSVLKGLSPNKAGNLVAKDGITVGKVVDGNLKKLQGRRCTAKGEFFDDAGKKIGQAEPIPEDERSNPEGAPFEDFEGATVQQNGDVVHNGAKVGEIVEGDAKKIAGKTVDADGDVVDKSGTIVGKAQRWYEPEEQEPEKADLSLLAGNRVNKSGYIVDNSGKLLGRVVEGDPAKLAGKMCDKEGQIWNEGGSVVGRAELLPESEREGQKEGPFSDFQPATVRKDGKVIDNSGTVIGRLVEGDAAKLHGKSVDEQGDVVDKNGNKIGSAERWEEEEKEEEKHPAAGLKVNNEGAVIDNNGNTVAKLTEGEISRCRGKEIDNDGDVVDGKGKSIGRVTLVQDLPKRDEAAEQKKAEEEEARKAAEQKKAEEDEERKAAEQKKAEEDEERKKKEDEELKKLEGDSKLAKRMAYEVDSTLDRIKPVLEEMTDLIEDAHSKPKEEVDQEALVKKVKPLIHKSSDILNQCNSNIREMDPDGRMQQQAKENAATGEATPEERHLAEGLKKLSTEVTDAIRKGKKGIEGMPEAKKGISPLWRLLEQPLVQILAAVGLLLSGVLGLVNQLLGGLGLNGLLDGLLGGLGLDKLLGGLGIPKLGGK
binding: binds

B8: Endoribonuclease YSH1 (protein, UniProt J9W491 1-770)
chain: MIPRRRHFKPAPQPTVQVLQPPDEDAPSLTITMLGAGQEVGRSCCVIEHRGKKIVCDAGLHPAQPGIGALPFIDELDWSTVDAMLITHFHVDHAAALPYIMEKTNFKDGNGKVYMTHATKAIYGLTMMDTVRLNDQNPDTSGRLYDEADVQSSWQSTIAVDYHQDIVIAGGLRFTPYHAGHVLGASMFLIEIAGLMILYTGDYSREEDRHLVMAEIPPVKPDVMICESTFGVHTLPDRKEKEEQFTTLVANIVRRGGRCLMPIPSFGNGQELALLLDEYWHDHPELQNIPVYFASSLFQRGMRVYKTYVHTMNANIRSRFARRDNPFDFRFVKWLKDPQKLRENKGPCVIMSSPQFMSFGLSRDLLEEWAPDSKNGVIVTGYSIEGTMARTLLSEPDHIESLKGGNIPRRLTVKEISFGAHVDYAQNSKFIQEIGAQHVVLVHGEASQMGRLRAALRDTYAAKGQEINIHTPKNCEPLTLTFRQERMVKAIGSLAATRPEHGTSVKGLLVSKDFSYTLLSPADLHDFTGLSTSTIIQKQGVAISVDWAVVRWYLEGMYGEVEEGVVEEEKAAFTIMNGVQVVRISPTAVELRWKSSSSNDMIADSALALLLGIDGSPATAKLTASPNKHACNHSHSHSDLQPHTYPGDKSAKEVASNPEFERLRMFLEAHFGHVEGPNLRPPLPRGADGDGNDDQDGDDWLTMDVKLDNHTARIDLISMRVDSESIELQKRVETVVEMALTTVKSLSQTFLGGGLDVDMVEKVEPSESDS
binding: binds
